This passage reports binding results from article PMC7541391.

No constants are given. Whether binding was seen depends on the method and setting. Binding seen in cells or lysates may run through a third protein. Some entries that bind do so weakly or less than the wild type. Tags and fused reporters may be left off the sequences shown.

In the test the target is T1, GST-FABP7wt (mouse) (UniProt P51880).
T1 sequence: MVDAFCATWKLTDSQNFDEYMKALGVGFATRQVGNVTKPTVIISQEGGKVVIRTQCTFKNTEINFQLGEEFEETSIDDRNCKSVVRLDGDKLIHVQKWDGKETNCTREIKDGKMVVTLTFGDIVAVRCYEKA
Description: pull-down; GST-FABP7 from Sf21 cells immobilised on Glutathione Sepharose 4B, incubated at 4 °C for 4 h with lysate of FABP7-KO primary cultured astrocytes or NIH-3T3 cells; western blot; only the target purified.

B1: ATP-citrate lyase (mouse, from astrocytes and NIH-3T3 cells) (enzyme, UniProt Q91V92 1-1091)
chain: MSAKAISEQTGKELLYKYICTTSAIQNRFKYARVTPDTDWAHLLQDHPWLLSQSLVVKPDQLIKRRGKLGLVGVNLSLDGVKSWLKPRLGHEATVGKAKGFLKNFLIEPFVPHSQAEEFYVCIYATREGDYVLFHHEGGVDVGDVDAKAQKLLVGVDEKLNTEDIKRHLLVHAPEDKKEVLASFISGLFNFYEDLYFTYLEINPLVVTKDGVYILDLAAKVDATADYICKVKWGDIEFPPPFGREAYPEEAYIADLDAKSGASLKLTLLNPKGRIWTMVAGGGASVVYSDTICDLGGVNELANYGEYSGAPSEQQTYDYAKTILSLMTREKHPEGKILIIGGSIANFTNVAATFKGIVRAIRDYQGPLKEHEVTIFVRRGGPNYQEGLRVMGEVGKTTGIPIHVFGTETHMTAIVGMALGHRPIPNQPPTAAHTANFLLNASGSTSTPAPSRTASFSESRADEVAPAKKAKPAMPQGKSATLFSRHTKAIVWGMQTRAVQGMLDFDYVCSRDEPSVAAMVYPFTGDHKQKFYWGHKEILIPVFKNMADAMKKHPEVDVLINFASLRSAYDSTMETMNYAQIRTIAIIAEGIPEALTRKLIKKADQKGVTIIGPATVGGIKPGCFKIGNTGGMLDNILASKLYRPGSVAYVSRSGGMSNELNNIISRTTDGVYEGVAIGGDRYPGSTFMDHVLRYQDTPGVKMIVVLGEIGGTEEYKICRGIKEGRLTKPVVCWCIGTCATMFSSEVQFGHAGACANQASETAVAKNQALKEAGVFVPRSFDELGEIIQSVYEDLVAKGAIVPAQEVPPPTVPMDYSWARELGLIRKPASFMTSICDERGQELIYAGMPITEVFKEEMGIGGVLGLLWFQRRLPKYSCQFIEMCLMVTADHGPAVSGAHNTIICARAGKDLVSSLTSGLLTIGDRFGGALDAAAKMFSKAFDSGIIPMEFVNKMKKEGKLIMGIGHRVKSINNPDMRVQILKDFVKQHFPATPLLDYALEVEKITTSKKPNLILNVDGFIGVAFVDMLRNCGSFTREEADEYVDIGALNGIFVLGRSMGFIGHYLDQKRLKQGLYRHPWDDISYVLPEHMSM
In the case of B1, the binding result is “binds”.
